This is one part of the list.
Key:
Test in all cases: log2 fold change, soluble protein after heating vs DMSO (PISA); higher = thermal stabilisation; K562 cells, 10 uM, 30 min; active = over 0.2 and 3.5 SD of the protein, either way, in both replicates (recomputed)
[1] = compound: CC1=C(C=C(C=C1)NC(=O)C2=CC(=CC=C2)C(C)(C)C#N)NC3=CC4=C(C=C3)N=CN(C4=O)C
Outline: (§1)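 Aliquots of K562 cells (2×10^6 cells/mL) treated with 10 μM compound for 30 min were heated for 3 min over 48°C-58°C. After pooling and extraction in PBS with 0.5% NP-40 at 4°C, soluble protein from a 21,000xg, 90 min spin was quantified by TMTpro 16plex LC-MS/MS with channel sums equalised. Thermal stability is expressed against control samples, from duplicates, as a log2 fold change.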

Chains of the proteins cited; added tags and fusions are not shown. Lines headed by an entry give the natural chain unless they say otherwise; changes in a name come on top.
UniProt Q6P4Q7: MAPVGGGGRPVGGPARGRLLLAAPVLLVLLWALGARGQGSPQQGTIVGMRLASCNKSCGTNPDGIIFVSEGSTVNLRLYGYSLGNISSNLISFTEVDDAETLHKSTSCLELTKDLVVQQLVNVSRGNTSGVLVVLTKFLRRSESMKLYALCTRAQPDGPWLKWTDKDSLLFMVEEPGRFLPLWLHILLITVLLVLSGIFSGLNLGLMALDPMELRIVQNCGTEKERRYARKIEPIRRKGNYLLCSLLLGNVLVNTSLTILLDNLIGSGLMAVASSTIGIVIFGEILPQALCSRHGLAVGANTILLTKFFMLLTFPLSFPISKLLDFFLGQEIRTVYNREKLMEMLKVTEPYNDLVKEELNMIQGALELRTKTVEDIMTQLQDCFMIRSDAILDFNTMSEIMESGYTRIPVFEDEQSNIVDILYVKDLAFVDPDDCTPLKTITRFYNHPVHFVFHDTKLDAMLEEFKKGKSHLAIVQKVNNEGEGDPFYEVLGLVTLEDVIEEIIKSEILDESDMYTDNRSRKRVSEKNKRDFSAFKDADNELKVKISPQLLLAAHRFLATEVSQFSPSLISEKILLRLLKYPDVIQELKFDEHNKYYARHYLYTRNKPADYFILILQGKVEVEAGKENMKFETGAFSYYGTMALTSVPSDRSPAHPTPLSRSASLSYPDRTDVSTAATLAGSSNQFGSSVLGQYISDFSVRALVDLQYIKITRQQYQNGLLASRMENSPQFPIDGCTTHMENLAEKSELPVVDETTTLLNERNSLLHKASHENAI
UniProt O43405: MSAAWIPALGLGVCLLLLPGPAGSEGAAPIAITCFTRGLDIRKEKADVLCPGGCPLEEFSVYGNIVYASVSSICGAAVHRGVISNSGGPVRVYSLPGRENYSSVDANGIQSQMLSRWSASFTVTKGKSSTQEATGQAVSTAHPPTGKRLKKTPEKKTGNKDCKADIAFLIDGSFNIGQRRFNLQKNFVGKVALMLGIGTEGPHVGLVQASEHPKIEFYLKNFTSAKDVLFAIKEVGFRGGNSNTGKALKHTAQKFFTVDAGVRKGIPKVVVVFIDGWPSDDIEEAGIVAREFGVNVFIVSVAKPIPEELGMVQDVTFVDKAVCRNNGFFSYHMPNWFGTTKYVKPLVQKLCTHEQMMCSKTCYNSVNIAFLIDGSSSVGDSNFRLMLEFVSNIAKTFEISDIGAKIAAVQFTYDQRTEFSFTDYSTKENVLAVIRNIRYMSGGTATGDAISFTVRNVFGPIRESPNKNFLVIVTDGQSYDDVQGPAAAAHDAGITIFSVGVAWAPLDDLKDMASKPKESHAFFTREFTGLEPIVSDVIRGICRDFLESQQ
UniProt O15247: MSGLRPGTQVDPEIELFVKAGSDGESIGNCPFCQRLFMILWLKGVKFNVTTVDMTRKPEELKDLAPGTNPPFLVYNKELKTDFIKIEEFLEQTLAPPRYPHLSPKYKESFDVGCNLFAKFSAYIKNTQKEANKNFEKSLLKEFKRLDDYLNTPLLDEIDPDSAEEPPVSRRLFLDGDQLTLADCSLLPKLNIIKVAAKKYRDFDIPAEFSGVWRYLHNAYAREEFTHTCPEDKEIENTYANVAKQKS
UniProt Q9BW66: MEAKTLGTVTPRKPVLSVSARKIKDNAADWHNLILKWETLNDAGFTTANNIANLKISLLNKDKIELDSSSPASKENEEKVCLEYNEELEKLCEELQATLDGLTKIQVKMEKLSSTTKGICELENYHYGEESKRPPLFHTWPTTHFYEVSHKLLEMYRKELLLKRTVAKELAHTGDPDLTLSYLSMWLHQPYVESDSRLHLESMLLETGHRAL
UniProt Q13057: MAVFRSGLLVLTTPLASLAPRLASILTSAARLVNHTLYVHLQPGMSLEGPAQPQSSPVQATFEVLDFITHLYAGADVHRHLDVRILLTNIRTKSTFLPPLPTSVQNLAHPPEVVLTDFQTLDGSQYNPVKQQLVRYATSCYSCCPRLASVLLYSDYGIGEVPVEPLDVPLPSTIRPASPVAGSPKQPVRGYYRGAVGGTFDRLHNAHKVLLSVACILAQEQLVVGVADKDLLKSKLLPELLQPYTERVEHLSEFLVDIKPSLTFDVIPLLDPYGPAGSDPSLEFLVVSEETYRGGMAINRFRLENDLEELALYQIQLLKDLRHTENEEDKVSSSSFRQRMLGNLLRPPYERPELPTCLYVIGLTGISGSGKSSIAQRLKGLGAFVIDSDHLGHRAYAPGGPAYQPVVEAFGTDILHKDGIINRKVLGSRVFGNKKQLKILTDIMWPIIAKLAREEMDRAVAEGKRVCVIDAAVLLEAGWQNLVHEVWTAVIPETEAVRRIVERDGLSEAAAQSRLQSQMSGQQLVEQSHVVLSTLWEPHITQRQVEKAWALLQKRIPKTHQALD
UniProt Q8N5K1: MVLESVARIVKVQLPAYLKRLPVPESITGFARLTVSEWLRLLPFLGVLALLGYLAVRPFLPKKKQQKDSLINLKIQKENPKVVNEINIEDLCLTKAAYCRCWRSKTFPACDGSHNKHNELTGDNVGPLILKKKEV
UniProt Q9NRP2: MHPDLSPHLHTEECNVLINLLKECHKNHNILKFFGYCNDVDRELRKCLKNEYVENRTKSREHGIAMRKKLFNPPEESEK
UniProt P61024, whole entry, looked up: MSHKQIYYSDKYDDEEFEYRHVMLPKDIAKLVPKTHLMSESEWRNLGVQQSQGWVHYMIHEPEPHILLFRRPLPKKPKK
UniProt Q96S66: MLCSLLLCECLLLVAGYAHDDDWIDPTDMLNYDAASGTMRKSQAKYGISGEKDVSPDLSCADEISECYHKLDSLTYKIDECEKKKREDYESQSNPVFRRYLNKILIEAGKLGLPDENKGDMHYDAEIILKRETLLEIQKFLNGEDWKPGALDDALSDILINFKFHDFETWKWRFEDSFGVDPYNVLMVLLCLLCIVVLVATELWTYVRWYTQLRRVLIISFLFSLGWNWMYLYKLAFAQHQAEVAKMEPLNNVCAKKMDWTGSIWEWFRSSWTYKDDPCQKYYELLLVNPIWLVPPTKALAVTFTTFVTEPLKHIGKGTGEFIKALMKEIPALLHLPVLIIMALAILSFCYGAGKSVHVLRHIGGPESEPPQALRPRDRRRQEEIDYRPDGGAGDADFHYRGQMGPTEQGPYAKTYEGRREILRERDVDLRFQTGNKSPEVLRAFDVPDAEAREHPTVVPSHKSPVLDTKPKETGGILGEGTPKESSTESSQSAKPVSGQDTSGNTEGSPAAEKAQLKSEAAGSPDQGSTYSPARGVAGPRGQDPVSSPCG
UniProt Q86X95: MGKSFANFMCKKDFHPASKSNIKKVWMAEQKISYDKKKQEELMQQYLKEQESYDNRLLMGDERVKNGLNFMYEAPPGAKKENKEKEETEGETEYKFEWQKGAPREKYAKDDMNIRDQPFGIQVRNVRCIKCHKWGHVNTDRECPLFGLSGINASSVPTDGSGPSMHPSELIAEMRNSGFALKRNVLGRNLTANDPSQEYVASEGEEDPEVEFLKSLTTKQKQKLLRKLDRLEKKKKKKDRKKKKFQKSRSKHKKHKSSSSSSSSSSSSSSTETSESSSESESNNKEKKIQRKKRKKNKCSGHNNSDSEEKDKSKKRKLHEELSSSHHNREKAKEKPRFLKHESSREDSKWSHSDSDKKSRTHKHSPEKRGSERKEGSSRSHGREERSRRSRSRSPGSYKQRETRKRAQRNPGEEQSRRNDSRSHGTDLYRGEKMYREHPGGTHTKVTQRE
UniProt Q6FI81: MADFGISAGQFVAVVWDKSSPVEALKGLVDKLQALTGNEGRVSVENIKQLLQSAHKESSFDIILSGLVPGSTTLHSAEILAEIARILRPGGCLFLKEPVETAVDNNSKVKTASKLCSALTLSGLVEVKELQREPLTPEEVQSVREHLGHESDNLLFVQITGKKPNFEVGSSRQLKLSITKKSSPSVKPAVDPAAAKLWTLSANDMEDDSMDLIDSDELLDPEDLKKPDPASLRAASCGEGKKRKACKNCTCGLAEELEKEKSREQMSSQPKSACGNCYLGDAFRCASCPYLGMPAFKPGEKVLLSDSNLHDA
UniProt P06732: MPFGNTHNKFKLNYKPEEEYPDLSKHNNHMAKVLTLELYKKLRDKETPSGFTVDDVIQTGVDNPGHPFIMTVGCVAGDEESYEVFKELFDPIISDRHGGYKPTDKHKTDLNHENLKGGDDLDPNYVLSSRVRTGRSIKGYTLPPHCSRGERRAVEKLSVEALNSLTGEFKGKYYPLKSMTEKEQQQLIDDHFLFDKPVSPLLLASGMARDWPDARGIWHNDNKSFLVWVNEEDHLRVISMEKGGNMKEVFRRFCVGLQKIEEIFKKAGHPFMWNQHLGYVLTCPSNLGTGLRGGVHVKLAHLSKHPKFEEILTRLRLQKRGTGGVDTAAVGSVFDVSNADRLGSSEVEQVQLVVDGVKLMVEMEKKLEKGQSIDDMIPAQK
UniProt Q9C0A0: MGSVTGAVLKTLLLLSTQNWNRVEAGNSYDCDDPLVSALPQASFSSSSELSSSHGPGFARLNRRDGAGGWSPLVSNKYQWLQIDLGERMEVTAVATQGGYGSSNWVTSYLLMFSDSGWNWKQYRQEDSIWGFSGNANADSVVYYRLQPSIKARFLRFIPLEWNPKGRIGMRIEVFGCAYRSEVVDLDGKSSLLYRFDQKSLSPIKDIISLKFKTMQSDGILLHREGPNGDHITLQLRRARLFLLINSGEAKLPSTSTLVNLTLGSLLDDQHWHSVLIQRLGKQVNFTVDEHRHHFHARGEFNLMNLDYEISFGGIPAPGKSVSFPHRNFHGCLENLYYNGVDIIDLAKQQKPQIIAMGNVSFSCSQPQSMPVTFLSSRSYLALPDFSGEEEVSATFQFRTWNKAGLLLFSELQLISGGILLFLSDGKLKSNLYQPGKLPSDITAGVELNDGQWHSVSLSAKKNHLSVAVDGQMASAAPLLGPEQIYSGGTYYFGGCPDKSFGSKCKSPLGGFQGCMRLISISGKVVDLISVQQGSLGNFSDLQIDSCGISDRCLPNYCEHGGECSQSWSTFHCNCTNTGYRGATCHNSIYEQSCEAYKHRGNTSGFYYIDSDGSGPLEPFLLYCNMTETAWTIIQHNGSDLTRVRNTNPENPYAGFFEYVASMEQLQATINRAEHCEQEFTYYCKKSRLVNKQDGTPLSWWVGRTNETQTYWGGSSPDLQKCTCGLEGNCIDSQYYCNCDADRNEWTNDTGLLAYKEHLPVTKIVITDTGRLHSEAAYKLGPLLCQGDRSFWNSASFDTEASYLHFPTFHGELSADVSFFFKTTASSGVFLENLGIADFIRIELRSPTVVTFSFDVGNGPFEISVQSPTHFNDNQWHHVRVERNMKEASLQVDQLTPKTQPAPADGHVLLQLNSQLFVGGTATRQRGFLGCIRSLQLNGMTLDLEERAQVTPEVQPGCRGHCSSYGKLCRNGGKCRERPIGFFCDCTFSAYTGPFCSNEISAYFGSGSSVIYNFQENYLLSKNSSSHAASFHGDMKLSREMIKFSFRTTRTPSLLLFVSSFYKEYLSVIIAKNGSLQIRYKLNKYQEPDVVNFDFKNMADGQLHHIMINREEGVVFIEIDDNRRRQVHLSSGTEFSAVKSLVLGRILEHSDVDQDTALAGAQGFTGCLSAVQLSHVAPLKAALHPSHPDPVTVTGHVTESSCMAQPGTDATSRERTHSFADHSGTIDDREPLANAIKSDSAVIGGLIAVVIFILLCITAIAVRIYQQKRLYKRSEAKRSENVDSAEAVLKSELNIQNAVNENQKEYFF
UniProt Q14011: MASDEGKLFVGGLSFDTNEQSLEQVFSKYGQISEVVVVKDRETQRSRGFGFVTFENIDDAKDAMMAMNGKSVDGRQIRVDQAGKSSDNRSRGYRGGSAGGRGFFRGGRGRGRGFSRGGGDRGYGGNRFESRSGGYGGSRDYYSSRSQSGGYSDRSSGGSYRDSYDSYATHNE

[2] = compound: CC1=C(C=C(C=C1)NC(=O)C2=CC(=CC=C2)N(C)C)NC(=O)C3=CC=C(C=C3)O
Outline: as §1

[3] = compound: CC1=CC=C(C=C1)SC2=C3C=C(SC3=CN=C2)C(=O)N
Outline: as §1

[4] = compound: CC1=NC(=CC=C1)C2=C(N=C(N2)C(C)(C)C)C3=CC4=NC=CN=C4C=C3
Outline: as §1

[5] = compound: CCCCN(Cc1ccc(C(=O)NO)cc1)C(=O)Nc1ccccc1 [Nexturastat A]
Outline: as §1

[6] = compound: CCCS(=O)(=O)Nc1ccc(F)c(C(=O)c2c[nH]c3ncc(-c4ccc(Cl)cc4)cc23)c1F [vemurafenib]
Outline: as §1

[7] = compound: CCCS(=O)(=O)Nc1ccc(F)c(C(=O)c2c[nH]c3ncc(Cl)cc23)c1F
Outline: as §1

[8] = compound: CCCc1cc(C)[nH]c(=O)c1CNC(=O)c1cc(-c2ccnc(N3CCN(C)CC3)c2)cc2c1cnn2C(C)C
Outline: as §1

[9] = compound: CCN(CC)Cc1ccc2cc(COC(=O)Nc3ccc(C(=O)NO)cc3)ccc2c1 [givinostat]
Outline: as §1

[10] = compound: CCN(CCCOc1ccc2c(Nc3cc(CC(=O)Nc4cccc(F)c4)[nH]n3)ncnc2c1)CCOP(=O)(O)O [barasertib]
Outline: as §1

Measured: log2 fold change

CNNM4 (UniProt Q6P4Q7)
inactive: [1] -0.091 | [2] -0.063 | [3] -0.231 | [4] -0.14 | [5] 0.014 | [6] -0.102 | [7] -0.051 | [8] 0.023 | [9] -0.027 | [10] 0.072

COCH (UniProt O43405)
inactive: [1] 0.072 | [2] 0.053 | [3] 0.059 | [4] 0.005 | [5] 0.046 | [6] -0.067 | [7] -0.05 | [8] 0.076 | [9] -0.049 | [10] 0

CLIC2 (UniProt O15247)
inactive: [1] 0.053 | [2] -0.07 | [3] 0.056 | [4] 0.011 | [5] -0.036 | [6] 0.057 | [7] 0.116 | [8] 0.014 | [9] 0.013 | [10] 0.042

CINP isoform 3 (UniProt Q9BW66)
inactive: [1] -0.02 | [2] -0.002 | [3] 0.033 | [4] 0.026 | [5] 0.045 | [6] -0.023 | [7] 0.031 | [8] -0.141 | [9] -0.005 | [10] -0.012

COASY isoform 2 (UniProt Q13057)
inactive: [1] -0.002 | [2] -0.058 | [3] 0.057 | [4] 0.029 | [5] 0.021 | [6] 0.054 | [7] 0.209 | [8] -0.007 | [9] -0.04 | [10] 0.029

CISD2 (UniProt Q8N5K1)
inactive: [1] 0.025 | [2] -0.013 | [3] -0.022 | [4] -0.028 | [5] -0.027 | [6] -0.044 | [7] -0.03 | [8] -0.033 | [9] 0.022 | [10] -0.02

CNOT1 (UniProt A5YKK6)
inactive: [1] 0.016 | [2] -0.007 | [3] -0.027 | [4] 0.014 | [5] 0.062 | [6] 0.044 | [7] 0.046 | [8] 0.013 | [9] 0.044 | [10] 0.044

CMC2 (UniProt Q9NRP2)
inactive: [1] -0.029 | [2] -0.019 | [3] -0.058 | [4] 0.058 | [5] -0.025 | [6] 0.017 | [7] -0.076 | [8] -0.072 | [9] -0.238 | [10] 0.035

CKS1B (UniProt P61024)
inactive: [1] -0.043 | [2] -0.094 | [3] -0.121 | [4] 0.036 | [5] -0.005 | [6] 0.056 | [7] -0.17 | [8] -0.38 | [9] -0.034 | [10] 0.029

3 neighbouring entries from above, quoted:
CISD2 (UniProt Q8N5K1)
inactive: [1] 0.025 | [2] -0.013 | [3] -0.022 | [4] -0.028 | [5] -0.027 | [6] -0.044 | [7] -0.03 | [8] -0.033 | [9] 0.022 | [10] -0.02

CNOT1 (UniProt A5YKK6)
inactive: [1] 0.016 | [2] -0.007 | [3] -0.027 | [4] 0.014 | [5] 0.062 | [6] 0.044 | [7] 0.046 | [8] 0.013 | [9] 0.044 | [10] 0.044

CMC2 (UniProt Q9NRP2)
inactive: [1] -0.029 | [2] -0.019 | [3] -0.058 | [4] 0.058 | [5] -0.025 | [6] 0.017 | [7] -0.076 | [8] -0.072 | [9] -0.238 | [10] 0.035

Next part

CLCC1 (UniProt Q96S66)
inactive: [1] 0.017 | [2] -0.019 | [3] 0.003 | [4] 0.009 | [5] -0.072 | [6] -0.003 | [7] -0.013 | [8] -0.098 | [9] 0.001 | [10] -0.013

CIR1 (UniProt Q86X95)
inactive: [1] -0.04 | [2] -0.38 | [3] 0.047 | [4] -0.018 | [5] 0.199 | [6] -0.156 | [7] -0.129 | [8] 0.047 | [9] -0.015 | [10] -0.105

CIAPIN1 (UniProt Q6FI81)
inactive: [1] 0.074 | [2] -0.026 | [3] 0.024 | [4] 0.012 | [5] -0.026 | [6] 0.009 | [7] 0.032 | [8] -0.058 | [9] -0.042 | [10] 0.016

CKM (UniProt P06732)
inactive: [1] 0.075 | [2] -0.068 | [3] -0.031 | [4] 0.132 | [5] -0.03 | [6] 0.069 | [7] 0.007 | [8] -0.227 | [9] 0.034 | [10] -0.068

CNTNAP4 (UniProt Q9C0A0)
inactive: [1] -0.028 | [2] -0.02 | [3] -0.087 | [4] -0.103 | [5] 0.065 | [6] -0.094 | [7] -0.068 | [8] 0.116 | [9] 0.022 | [10] -0.119

CIRBP isoform 2 (UniProt Q14011)
inactive: [1] 0.042 | [2] -0.008 | [3] -0.052 | [4] -0.045 | [5] 0.162 | [6] 0.016 | [7] -0.047 | [8] 0.044 | [9] -0.065 | [10] -0.096
